Measurements taken from PubChem BioAssay AID1439 (NMMLSC, 2008).
In all, about 220,000 compounds went through this assay and about 770 (0.35%) were called active. The shares of active, inactive and inconclusive entries below differ from those in the screen. No stated cut-off is given here; in the data, active means binding response below about 49% or above about 150%; inconclusive means no clear call, values can overlap the other calls; inactive means in between.

Sequences of proteins named here, by UniProt entry; tags and fusion partners are left off.
UniProt P09471, whole entry, looked up: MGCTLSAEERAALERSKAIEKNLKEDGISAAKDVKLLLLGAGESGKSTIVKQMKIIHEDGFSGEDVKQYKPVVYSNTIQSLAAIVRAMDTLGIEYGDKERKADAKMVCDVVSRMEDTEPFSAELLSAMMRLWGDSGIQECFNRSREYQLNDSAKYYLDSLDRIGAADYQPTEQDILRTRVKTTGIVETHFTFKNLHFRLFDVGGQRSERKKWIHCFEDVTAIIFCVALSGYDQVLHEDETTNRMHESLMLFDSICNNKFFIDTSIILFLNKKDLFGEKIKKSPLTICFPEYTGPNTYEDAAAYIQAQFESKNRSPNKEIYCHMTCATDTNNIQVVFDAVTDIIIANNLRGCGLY

Biological target: Guanine nucleotide-binding protein G(o) subunit alpha (Homo sapiens) (UniProt P09471)
Test: RGS7-Galphao binding modulators, primary screen, biochemical, multiplexed bead flow cytometry (AID 1439);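 further: fluorescent Galphao held in activated GDP-AlF4 state binding bead-coupled RGS7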
Conditions: at 10 µM, actives lie on both sides

Row | Structure (SMILES) | binding response (% of control)
1 | NC(=Nc1ccc(N)cc1)C(N)=Nc1ccc(N)cc1 | inconclusive: 17.3%
2 | Cc1ccc(/C=C2\CCC3=C2OC(N)=C(C#N)C3c2ccc(C)cc2)cc1 (stereo not given) | inactive: 117%
3 | CC(=O)Nc1ccc(N/C=C(\C=O)c2nc3ccccc3o2)cc1 | inactive: 104%
4 | CCOC(=O)COc1ccc(C(=O)Nc2cccc(Cl)c2C)cc1 | inactive: 98%
5 | CCCN(CCC)C(=S)NC1CC2C=CC1C2 (stereo not given) | inconclusive: 103%
6 | COc1ccc(/C=N/NC(=O)c2ccn[nH]2)cc1COc1ccc([N+](=O)[O-])c(C)c1 | inconclusive: 126%
7 | COCC(C)NC(=O)NC(=O)c1ccc(Cl)cc1 (stereo not given) | inactive: 109%
8 | Fc1cccc(Cl)c1/C=N/n1c(-c2cccnc2)n[nH]c1=S | inactive: 87.6%
9 | Cc1ccccc1CN1C(=O)C(C)S/C1=N/N=C/c1ccco1 (stereo not given) | inconclusive: 58.2%
10 | O=C(c1cccs1)N1CCN=C1SCc1cccc(F)c1 | inconclusive: 109%
11 | Cc1ccccc1NC(=O)C(=O)c1cn(C)c2ccccc12 | inconclusive: 113%
12 | CN1CCN(c2ccccc2NC(=O)c2cc3c(s2)-c2ccccc2OC3)CC1 | inconclusive: 78.7%
13 | O=S(=O)(c1ccc(C(F)(F)F)cc1)N1CCCN(c2ccc(C(F)(F)F)cn2)CC1 | inconclusive: 51.4%
14 | CC(=O)c1nnn(-c2ccc(F)cc2F)c1C | inconclusive: 107%
15 | CCOC(=O)N1CCN(C(=O)c2cnn3c(C(F)(F)F)cc(-c4cccs4)nc23)CC1 | inconclusive: 109%
16 | Cc1ccc(S(=O)(=O)n2nccc2-c2c(-c3ccccc3)noc2C)cc1 | inconclusive: 75.5%
17 | COc1ccc(NC(=O)c2cn(CCC#N)nc2-c2cc3ccccc3o2)cc1 | inactive: 100%
18 | CCCC(=O)NC(=S)Nc1cccc2c(O)cccc12 | inconclusive: 129%
19 | Cc1ccc2cccc(OCc3ccccc3)c2n1 | inconclusive: 88.9%
20 | CC1=NN(c2ccc(N)cc2)C(=O)C1 | active: 12.4%
21 | CCN(CC(=O)Nc1ccc(NC(C)=O)cc1)CC(=O)Nc1ccccc1C(=O)c1ccccc1 | inconclusive: 108%
22 | Cc1ccc(NC(=O)CSc2n[nH]c(N)n2)cc1S(=O)(=O)N1CCOCC1 | inconclusive: 89.4%
23 | OC(C#CCCN1CCCCC1)(c1ccccc1)C1CCCCC1 (stereo not given) | inconclusive: 404%

Row | Structure (SMILES) | binding response (% of control)
24 | O=C1CC(c2ccccc2)CC(=O)N1c1ccccc1 | inconclusive: 170%
25 | COc1ccc(/C=N/Nc2ccccn2)cc1OC | inconclusive: 126%
26 | Cc1ccc(N(Cc2cc(=O)[nH]c3ccccc23)C(=O)C(C)C)cc1 | inconclusive: 80.8%
27 | Cn1c(=O)oc2cc(NC(=O)CCl)ccc21 | inconclusive: 130%
28 | Cc1ccc(C(=O)NCC(=O)NCCc2ccc(S(N)(=O)=O)cc2)s1 | inconclusive: 94%
29 | Cc1ccc(S(=O)(=O)Nc2cnn(-c3ccccc3)c(=O)c2Cl)cc1 | inactive: 106%
30 | COc1ccc(Br)c(C(=O)Nc2ccc(F)cc2)c1 | inconclusive: 87.7%
31 | Cc1cc(/C=N/NC(N)=S)c(C)n1-c1cccc(Cl)c1 | inconclusive: 84.1%
32 | CN1C(=O)S/C(=C/c2cccn2-c2cccc(C(=O)O)c2)C1=O | inconclusive: 99.7%
33 | Clc1ccc(OCCn2cnc(Cl)c2Cl)cc1 | inconclusive: 46.5%
34 | CCOC(=O)C1CCN(C2=C(NS(=O)(=O)c3ccc(Cl)cc3)C(=O)c3ccccc3C2=O)CC1 | inconclusive: 47.3%
35 | O=C(N/N=C/c1ccccc1)c1n[nH]c2c1CCCC2 | inconclusive: 114%
36 | CN(c1ccccc1C(=O)Nc1ccc(F)c(Cl)c1)S(C)(=O)=O | inconclusive: 128%
37 | CC(C)C(CO)N1CCN(Cc2ccccc2)CCC1=O (stereo not given) | inconclusive: 102%
38 | CN1CCN(NC(=O)CC(C)(C)C)CC1 | inconclusive: 70.9%
39 | Cn1cccc1CC(=O)N/N=C/c1ccc(C(C)(C)C)cc1 | inconclusive: 144%
40 | O=C(c1ccco1)N1CCN(S(=O)(=O)c2ccccc2[N+](=O)[O-])CC1 | inconclusive: 112%
41 | COc1ccc(O)c(C2(O)C(=O)c3ccccc3C2=O)c1 | inconclusive: 142%
42 | CC(C)S(=O)(=O)c1csc(NC(=O)Nc2ccc(Cl)cc2)c1 | inconclusive: 74.5%
43 | COc1ccc(-n2c(SCC(=O)/C(C#N)=C(\C)N)nc3ccccc3c2=O)cc1OC | inconclusive: 56.1%
44 | CCOC(=O)CC1OC(=O)c2cc3c(cc21)C(=O)OC3CC(=O)OCC (stereo not given) | inconclusive: 88.9%
45 | Cc1nc(Oc2ccccc2)c2ccsc2n1 | inconclusive: 116%
46 | COCc1cc(/C=N\NC(=O)Cc2ccc(OC)cc2)ccc1OC | inactive: 98.2%

Row | Structure (SMILES) | binding response (% of control)
47 | CCCOc1ccc(N2CC(C(=O)NCCc3ccc(OC)c(OC)c3)CC2=O)cc1 (stereo not given) | inactive: 98.2%
48 | Cc1onc(-c2ccccc2)c1C(=O)Nc1ccc(S(=O)(=O)NC(C)(C)C)cc1 | inactive: 101%
49 | CCCNC(=O)COC(=O)c1ccccc1C(=O)c1ccc(Cl)c([N+](=O)[O-])c1 | inconclusive: 118%
50 | NS(=O)(=O)c1ccc(CNC(=O)/C=C/c2ccc(S(=O)(=O)N3CCOCC3)cc2)cc1 | inconclusive: 114%
51 | O=C(/C=C/c1ccc(F)cc1)Nc1ccc(S(=O)(=O)Nc2ncccn2)cc1 | inconclusive: 104%
52 | FC(F)(F)c1ccnc(N2CCN(Cc3cnc(-c4ccccc4)[nH]3)CC2)c1 | inconclusive: 122%
53 | CCN(CCn1cccn1)C(=O)CCc1nnc(CCCc2ccccc2)o1 | inactive: 105%
54 | O=C(c1cc2ccccc2oc1=O)N(Cc1cccc(Br)c1)C1CCS(=O)(=O)C1 (stereo not given) | inconclusive: 54.7%
55 | NS(=O)(=O)c1ccc(CCNC(=O)CC(NC(=O)c2ccccc2Cl)c2ccccc2)cc1 (stereo not given) | inconclusive: 114%
56 | O=C(NNC(=S)Nc1ccc(Br)cc1Cl)c1ccncc1 | active: 164% [activator]
57 | Clc1ccc(SCc2cc(N3CCOCC3)nc(-c3ccccn3)n2)cc1 | inconclusive: 97.7%
58 | Cc1noc(C)c1C(=O)N1CCC(C(=O)c2ccccc2)CC1 | inconclusive: 162%
59 | C=CCOc1ccc(CNc2ccc3[nH]c(=O)[nH]c3c2)cc1OC | inconclusive: 101%
60 | COc1ccc(-n2c(O)c(/C=N/NS(=O)(=O)c3cccc([N+](=O)[O-])c3)c3ccccc3c2=O)cc1OC | inconclusive: 79.6%
61 | Cc1c(Br)c(C(=O)NNC(=O)c2ccc(C(C)(C)C)cc2)nn1C | inconclusive: 146%
62 | O=C(O)CCn1cc(/C=C/C(=O)c2ccc(Cl)cc2)c(-c2cccc(Br)c2)n1 | inconclusive: 132%
63 | Cc1cc(S(=O)(=O)N2CCN(c3ccccc3C)CC2)ccc1F | inactive: 102%
64 | CCSc1nnc(NC(=O)Nc2cccc(C)c2)s1 | inconclusive: 35.1%
65 | CCCCn1c(-c2ccco2)nc2oc3ccccc3c(=O)c2c1=O | inconclusive: 103%
66 | COc1c(N2CCN(C(=S)NC3CC4CCC3C4)C(C)C2)c(F)cc2c(=O)c(C(=O)O)cn(C3CC3)c12 (stereo not given) | inconclusive: 74.4%
67 | Cc1ccc(CN2CCN(CC(=O)N/N=C/c3ccccc3F)CC2)cc1 | inconclusive: 121%
68 | Cc1cccc(-n2ncc3c(NCc4cccnc4)ncnc32)c1 | inconclusive: 111%
69 | C/C=C/c1ccc(OCC(=O)Nc2ccc(OC)c(OC)c2)c(OC)c1 | inconclusive: 94.7%

Individual results from the list.
For binding response (% of control), `CN(c1ccccc1C(=O)Nc1ccc(F)c(Cl)c1)S(C)(=O)=O` has inconclusive: 128%
For binding response (% of control), `COCC(C)NC(=O)NC(=O)c1ccc(Cl)cc1` (stereo not given) has inactive: 109%
For binding response (% of control), `CCOC(=O)C1CCN(C2=C(NS(=O)(=O)c3ccc(Cl)cc3)C(=O)c3ccccc3C2=O)CC1` has inconclusive: 47.3%
For binding response (% of control), `Cc1cc(/C=N/NC(N)=S)c(C)n1-c1cccc(Cl)c1` has inconclusive: 84.1%
For binding response (% of control), `O=C(c1cc2ccccc2oc1=O)N(Cc1cccc(Br)c1)C1CCS(=O)(=O)C1` (stereo not given) has inconclusive: 54.7%

(listing goes on)

Row | Structure (SMILES) | binding response (% of control)
70 | O=C1c2cccc3cccc(c23)C(=O)N1Cc1cccnc1 | inconclusive: 62.5%
71 | Cn1nc(C(F)(F)F)c(-c2ccc(Br)cc2)c1NC(=O)CSCC(=O)O | inconclusive: 90%
72 | FC(F)(F)c1cnc(N2CCN(C(=S)NCc3ccccc3)CC2)c(Cl)c1 | inconclusive: 37%
73 | COc1ccccc1-n1c(SCC(=O)Nc2ccc(Br)cc2)nc(O)cc1=O | inconclusive: 102%
74 | CCCCCCC(=O)N1C/C=C\C(c2ccc(OC)cc2)N(Cc2ccc(F)cc2)C(=O)C1 (stereo not given) | inconclusive: 115%
75 | COc1ccc(NC(=S)Nc2ccccn2)cc1 | inconclusive: 122%
76 | Cc1nn(-c2cc(C(F)(F)F)ccc2Cl)c2nc(C(Cl)(Cl)Cl)[nH]c(=O)c12 | inconclusive: 100%
77 | COc1ccc2cc(C(=O)C3CCCN(C(=O)c4ccnn4C)C3)ccc2c1 (stereo not given) | inconclusive: 111%
78 | COc1ccc(-c2noc(CN3CCCC(OCc4ccccn4)C3)n2)cc1 (stereo not given) | inconclusive: 34.2%
79 | CCCc1cc(=O)[nH]c(SCC(=O)Nc2ccc(Br)cc2Br)n1 | inconclusive: 106%
80 | O=C(c1cccc(C(=O)N(c2ccccn2)C2CCCCC2)c1)N(c1ccccn1)C1CCCCC1 | inconclusive: 121%
81 | Cc1[nH]c(=O)[nH]c(=O)c1/C=N/NC(=O)[C@H](C)N | inconclusive: 89.4%
82 | Cc1ccc(NC(=S)N(CCCN2CCOCC2)Cc2ccco2)cc1 | inconclusive: 105%
83 | COC(C(=O)Nc1cccc([N+](=O)[O-])c1)c1ccccc1 (stereo not given) | inactive: 92.1%
84 | C=CCN1C(=O)C2(NC(=O)c3ccccc3N2)c2ccccc21 (stereo not given) | active: 270% [activator]
85 | O=C(O)CCc1ccc(-c2ccccc2)o1 | inactive: 96.5%
86 | CCS(=O)(=O)N1CCC(N2CCC(C)CC2)CC1 | inconclusive: 20.4%
87 | CCOC(=O)COc1nc(-c2ccccc2)cc(-c2ccco2)c1C#N | inconclusive: 148%
88 | NC(=O)COC(=O)/C=C/c1ccccc1[N+](=O)[O-] | inconclusive: 104%
89 | O=C(Nc1ccc(F)cc1)C1CCC(CNc2c(N3CCCCC3)c(=O)c2=O)CC1 (stereo not given) | inconclusive: 111%
90 | CCOc1ccc(/C=N/NC(=S)NC2CC3CCC2C3)cc1 (stereo not given) | inconclusive: 98.3%
